{
  "sequences": {"note": "Chains of the proteins cited; added tags and fusions are not shown. Lines headed by an entry give the natural chain unless they say otherwise; changes in a name come on top.", "UniProt P25440": "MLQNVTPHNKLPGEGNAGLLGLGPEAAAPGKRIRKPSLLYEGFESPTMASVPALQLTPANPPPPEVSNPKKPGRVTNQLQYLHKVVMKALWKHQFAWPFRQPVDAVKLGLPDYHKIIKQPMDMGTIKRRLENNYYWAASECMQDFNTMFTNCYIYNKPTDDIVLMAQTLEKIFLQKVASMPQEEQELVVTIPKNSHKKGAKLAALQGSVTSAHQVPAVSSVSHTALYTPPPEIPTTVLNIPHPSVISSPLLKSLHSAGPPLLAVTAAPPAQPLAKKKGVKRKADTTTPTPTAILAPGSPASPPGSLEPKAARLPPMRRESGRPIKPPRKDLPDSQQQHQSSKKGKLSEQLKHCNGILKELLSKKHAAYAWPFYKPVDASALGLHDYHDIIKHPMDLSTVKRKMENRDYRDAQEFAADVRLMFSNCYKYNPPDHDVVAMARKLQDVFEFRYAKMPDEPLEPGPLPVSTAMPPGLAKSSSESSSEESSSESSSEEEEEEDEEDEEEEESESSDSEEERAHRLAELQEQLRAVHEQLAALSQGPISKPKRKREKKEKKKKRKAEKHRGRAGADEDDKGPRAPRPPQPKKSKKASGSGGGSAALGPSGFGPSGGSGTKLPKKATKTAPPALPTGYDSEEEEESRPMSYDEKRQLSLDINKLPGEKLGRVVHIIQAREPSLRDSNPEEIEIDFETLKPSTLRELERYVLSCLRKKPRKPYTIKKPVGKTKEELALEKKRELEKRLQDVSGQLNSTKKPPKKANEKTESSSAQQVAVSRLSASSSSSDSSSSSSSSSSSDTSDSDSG"},
  "source": "patent US20190119364A1",
  "binders": {"B1": {"name": "HDAC11 (histone deacetylase 11) (enzyme)", "chain": "MLHTTQLYQHVPETRWPIVYSPRYNITFMGLEKLHPFDAGKWGKVINFLKEEKLLSDSMLVEAREASEEDLLVVHTRRYLNELKWSFAVATITEIPPVIFLPNFLVQRKVLRPLRTQTGGTIMAGKLAVERGWAINVGGGFHHCSSDRGGGFCAYADITLAIKFLFERVEGISRATIIDLDAHQGNGHERDFMDDKRVYIMDVYNRHIYPGDRFAKQAIRRKVELEWGTEDDEYLDKVERNIKKSLQEHLPDVVVYNAGTDILEGDRLGGLSISPAGIVKRDELVFRMVRGRRVPILMVTSGGYQKRTARIIADSILNLFGLGLIGPESPSVSAQNSDTPLLPPAVP"}},
  "key": {"[1]": {"target": "Bromodomain-containing protein 2 (BRD2) (Homo sapiens (Human)) (UniProt P25440)", "test": "co-immunoprecipitation, protein gel image (FIG. 21)"}, "[2]": {"target": "Bromodomain-containing protein 2 (BRD2) (Homo sapiens (Human)) (UniProt P25440)", "test": "co-immunoprecipitation in 293A cells, western blot"}},
  "note": "No constants are given. Whether binding was seen depends on the method and setting. Binding seen in cells or lysates may run through a third protein. Some entries that bind do so weakly or less than the wild type. Tags and fused reporters may be left off the sequences shown.",
  "data": [
    {"binder": "B1", "values": [
      {"measurement": "binding", "setting": "[1]", "value": "binds"},
      {"measurement": "binding", "setting": "[2]", "value": "binds"}
    ]}
  ]
}
